{
  "source": "patent US10258642B2",
  "about": "“Dextran sulfate for use in mobilization of cells” (TX MEDIC AB, priority 2013, dated 2019)",
  "test_system": "peripheral blood cells",
  "conditions": "single dose; AMD3100 s.c., dextran sulfate i.v.",
  "note": "Some entries share one result that the patent states for a list of compounds.",
  "data": [
    {"substance": "dextran sulfate [LMW-DS]", "values": [
      {"measurement": "general increase of WBC over control", "value": "3-5 times"}
    ]}
  ]
}
